{"source": "PubChem BioAssay AID1508587 – Peter MacCallum Cancer Centre, 2020", "screen": "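Retest of knockdowns boosting BRAF inhibitor action on lactate release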 (follow-up of hits)", "system": "human WM266.4 melanoma cells with a BRAF V600 mutation", "reagent": "single siRNA against human genes, 25 nM", "duration": "96 h", "treatment": "vemurafenib 300 nM (about IC25), given 48 h after transfection for 48 h", "measurement": "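Per-cell lactate from absorbance divided by DAPI nucleus counts, compared with and without vemurafenib, relative to non-targeting siRNA, mean of 2 replicates; nuclear counts also give cell number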", "reading the numbers": "lactate per cell, drug vs no drug: higher = less drug-induced drop in lactate per cell; lactate per cell with vemurafenib: higher = more lactate per cell under drug", "hit rule": "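Enhancer call for any duplex whose drug versus no-drug per-cell lactate ratio is below 0.55 (2 SD beneath non-targeting average); genes confirmed when at least 2 of their 4 duplexes qualify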", "note": "Shown is a random part of about 1,600 reagents. 623 of them (39%) were called active. 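Calls are for each duplex; lactate ratios contain extreme outliers.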 Unmarked entries are inactive. The numbers tell different reagents against one gene apart. Not all columns of the deposit are shown."}
{"gene": "ETNK2", "reagent no.": 1, "lactate per cell, drug vs no drug": "0.44 (active)", "lactate per cell with vemurafenib": 0.98}
{"gene": "ETNK2", "reagent no.": 2, "lactate per cell, drug vs no drug": "0.51 (active)", "lactate per cell with vemurafenib": 0.94}
{"gene": "ETNK2", "reagent no.": 3, "lactate per cell, drug vs no drug": "0.52 (active)", "lactate per cell with vemurafenib": 0.62}
{"gene": "ETNK2", "reagent no.": 4, "lactate per cell, drug vs no drug": "0 (active)", "lactate per cell with vemurafenib": 0}

2 entries from above, set out differently:
ETNK2 #3 → lactate per cell, drug vs no drug = 0.52 (active); lactate per cell with vemurafenib = 0.62
ETNK2 #4 → lactate per cell, drug vs no drug = 0 (active); lactate per cell with vemurafenib = 0

The results go on.
{"gene": "GOLGA6L9", "reagent no.": 1, "lactate per cell, drug vs no drug": "0.53 (active)", "lactate per cell with vemurafenib": 1.96}
{"gene": "GOLGA6L9", "reagent no.": 2, "lactate per cell, drug vs no drug": "0.46 (active)", "lactate per cell with vemurafenib": 0.6}
{"gene": "GOLGA6L9", "reagent no.": 3, "lactate per cell, drug vs no drug": "0.42 (active)", "lactate per cell with vemurafenib": 0.38}
{"gene": "GOLGA6L9", "reagent no.": 4, "lactate per cell, drug vs no drug": "0.53 (active)", "lactate per cell with vemurafenib": 0.91}
{"gene": "PITPNC1", "reagent no.": 1, "lactate per cell, drug vs no drug": 0.76, "lactate per cell with vemurafenib": 1.08}
{"gene": "PITPNC1", "reagent no.": 2, "lactate per cell, drug vs no drug": 0.6, "lactate per cell with vemurafenib": 0.96}
{"gene": "PITPNC1", "reagent no.": 3, "lactate per cell, drug vs no drug": 0.61, "lactate per cell with vemurafenib": 1.52}
{"gene": "PITPNC1", "reagent no.": 4, "lactate per cell, drug vs no drug": 0.55, "lactate per cell with vemurafenib": 1.53}
